Data reported in US9920092B1, “Composition having anti-oxidant, anti-aging, and autophagy activities and uses thereof” (Incospharm Corporation, priority 2017, dated 2018).
At least one structure is not confirmed: it was looked up by name or label, or the drawing left a doubt.

System: human epidermal keratinocyte cells
Test: LC3 puncta assay (confocal microscope)
Type: cell-based
Conditions: 100 uM, 48 hours, anti-LC3 immunostaining; FIG. 7

SMILES: CO[C@H]1C[C@@H]2CC[C@@H](C)[C@@](O)(O2)C(=O)C(=O)N2CCCC[C@H]2C(=O)O[C@H]([C@H](C)C[C@@H]2CC[C@@H](O)[C@H](OC)C2)CC(=O)[C@H](C)/C=C(\C)[C@@H](O)[C@@H](OC)C(=O)[C@H](C)C[C@H](C)/C=C/C=C/C=C/1C [rapamycin]
- formation of LC3 puncta in the cells: a large amount of a LC puncta
